Test results from article PMC4743851.
No constants are given. Whether binding was seen depends on the method and setting. In cells and extracts the contact can be indirect. Some results given as binding are weak or reduced against the parent protein; the word gives no strength.

The chains behind the UniProt entries cited, without tags or fusion partners. Residues count along the entry.
UniProt Q08849: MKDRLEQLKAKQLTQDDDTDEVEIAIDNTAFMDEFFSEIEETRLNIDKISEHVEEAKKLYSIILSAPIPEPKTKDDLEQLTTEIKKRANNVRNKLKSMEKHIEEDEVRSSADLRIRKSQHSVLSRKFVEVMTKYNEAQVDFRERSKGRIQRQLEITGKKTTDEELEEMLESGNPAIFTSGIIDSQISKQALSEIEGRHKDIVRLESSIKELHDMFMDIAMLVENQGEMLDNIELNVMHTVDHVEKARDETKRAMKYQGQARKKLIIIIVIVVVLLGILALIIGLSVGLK
UniProt P54290, residues 25-1091: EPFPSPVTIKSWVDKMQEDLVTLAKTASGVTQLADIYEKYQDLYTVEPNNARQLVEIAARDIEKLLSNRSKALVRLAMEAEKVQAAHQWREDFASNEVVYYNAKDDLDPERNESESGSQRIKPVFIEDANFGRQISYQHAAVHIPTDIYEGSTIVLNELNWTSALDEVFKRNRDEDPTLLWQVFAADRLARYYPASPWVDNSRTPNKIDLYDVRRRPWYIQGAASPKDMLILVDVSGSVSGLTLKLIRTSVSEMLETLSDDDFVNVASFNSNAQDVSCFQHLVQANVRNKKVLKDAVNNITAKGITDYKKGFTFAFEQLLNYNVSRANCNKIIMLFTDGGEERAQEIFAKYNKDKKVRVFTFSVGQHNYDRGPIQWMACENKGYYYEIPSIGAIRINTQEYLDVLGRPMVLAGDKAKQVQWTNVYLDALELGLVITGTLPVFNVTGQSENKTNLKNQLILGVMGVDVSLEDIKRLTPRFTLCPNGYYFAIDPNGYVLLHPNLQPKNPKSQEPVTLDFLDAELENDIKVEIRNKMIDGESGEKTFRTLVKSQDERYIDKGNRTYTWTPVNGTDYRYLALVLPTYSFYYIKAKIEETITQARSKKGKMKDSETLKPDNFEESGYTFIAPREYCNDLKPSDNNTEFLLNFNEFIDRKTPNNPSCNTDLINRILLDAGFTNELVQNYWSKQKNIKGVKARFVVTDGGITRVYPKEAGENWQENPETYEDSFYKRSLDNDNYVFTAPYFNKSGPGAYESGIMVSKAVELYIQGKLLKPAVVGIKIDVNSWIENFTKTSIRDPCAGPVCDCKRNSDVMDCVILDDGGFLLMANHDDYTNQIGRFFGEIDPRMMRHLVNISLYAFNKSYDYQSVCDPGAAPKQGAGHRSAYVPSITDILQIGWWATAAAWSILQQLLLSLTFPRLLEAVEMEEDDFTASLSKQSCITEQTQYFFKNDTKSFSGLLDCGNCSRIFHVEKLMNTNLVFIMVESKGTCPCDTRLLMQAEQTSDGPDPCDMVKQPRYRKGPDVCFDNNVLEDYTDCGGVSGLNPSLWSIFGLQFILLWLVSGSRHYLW

target: Syntaxin-3 (endogenous, INS-1 832/13 cells) (rat (endogenous in INS-1 832/13)) (UniProt Q08849); test: co-IP; IP with 2 μg Syn-3 or Syn-1A antibody from 1 mg INS-1 832/13 lysate; cells at basal 0.8 mM glucose or stimulated with 16.7 mM glucose plus 10 nM GLP-1 for 30 min; blots quantified as percent recovery of total lysate input

Row | binding | Substance
1 | binds weakly | Cav auxiliary subunit alpha2delta-1 (endogenous, INS-1 832/13 cells) (from UniProt P54290 25-1091)
2 | binds weakly | Cav auxiliary subunit beta3 (endogenous, INS-1 832/13 cells) (from UniProt P54287 1-484)
3 | no binding | Cav2.2 alpha1 pore-forming subunit (endogenous, INS-1 832/13 cells) (from UniProt Q02294 1-2336)
